Experimental data: PubChem BioAssay AID1439 (NMMLSC, 2008)
Screen size: about 220,000 compounds; about 770 (0.35%) were called active. Inconclusive results, whose numbers are uncertain, are shown with a selection of clear calls. No stated cut-off is given here; in the data, active means binding response below about 49% or above about 150%; inconclusive means no clear call, values can overlap the other calls; inactive means in between.

By UniProt entry, the sequences of proteins in these tests, tags left out.
UniProt P09471, whole entry, looked up: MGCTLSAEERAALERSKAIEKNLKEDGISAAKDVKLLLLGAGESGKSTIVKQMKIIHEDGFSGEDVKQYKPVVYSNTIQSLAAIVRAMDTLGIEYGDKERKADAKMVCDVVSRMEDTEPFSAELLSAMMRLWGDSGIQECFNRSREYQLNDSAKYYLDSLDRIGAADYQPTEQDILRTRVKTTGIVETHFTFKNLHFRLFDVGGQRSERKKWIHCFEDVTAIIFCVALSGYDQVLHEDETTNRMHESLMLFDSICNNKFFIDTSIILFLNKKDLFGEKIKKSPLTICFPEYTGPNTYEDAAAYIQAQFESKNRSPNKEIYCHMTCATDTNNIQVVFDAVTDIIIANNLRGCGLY

What follows are compounds tested against Guanine nucleotide-binding protein G(o) subunit alpha (Homo sapiens) (UniProt P09471) (assay: RGS7-Galphao binding modulators, primary screen, biochemical, multiplexed bead flow cytometry (AID 1439;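 further: fluorescent Galphao held in activated GDP-AlF4 state binding bead-coupled RGS7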)). Conditions: at 10 µM, actives lie on both sides.
`CCCCCn1cnc2c(=S)nc(N)[nH]c21` was tested, and the binding response (% of control) was inconclusive: 89.4%.
For `C[C@@H]1CC=C[C@H]2[C@H]1C(=O)N(Cc1ccccc1)[C@H]2c1ccc(/C=C/c2ccccc2)cc1F`, the binding response (% of control) was inconclusive: 118%.
With `O=C(N/N=C1\NC(=O)C(CO)(CO)S1)c1ccccc1` the binding response (% of control) was inconclusive: 85%.
With `O=C(O)c1cc(-c2ccco2)nc2cc3ccccc3cc12` the binding response (% of control) was inconclusive: 75.3%.
In the case of `COc1ccc(C2=NC(=O)NC2c2ccc(OC)cc2)cc1` (stereo not given), the binding response (% of control) is reported as inconclusive: 103%.
With `C=CCN=C1SC(C)(C)C(=O)N1S(=O)(=O)c1ccc(C)cc1` the binding response (% of control) was inactive: 61.5%.
`CC(C)CN(Cc1cc(=O)oc2cc3c(cc12)CCCC3)CC(C)C` was tested, and the binding response (% of control) was inconclusive: 148%.
`CCc1ccccc1NC(=O)C1CCN(C(=O)c2ccc([N+](=O)[O-])cc2)CC1` was tested, and the binding response (% of control) was inactive: 101%.
With `COc1cc(/C=C/C(=O)OCC(=O)Nc2cc(C)c(C)cc2[N+](=O)[O-])ccc1O` the binding response (% of control) was inconclusive: 93.8%.
`O=C(CSc1n[nH]c(=O)[nH]c1=O)c1ccc(Cl)cc1Cl` was tested, and the binding response (% of control) was inconclusive: 41.2%.
`O=C1/C(=C/c2cccc(Cl)c2)CSc2sccc21` was tested, and the binding response (% of control) was inconclusive: 70.4%.
In the case of `CCCNC(=O)c1onc(CSc2ccc(F)cc2)c1C(=O)NCCC`, the binding response (% of control) is reported as inconclusive: 96.8%.
With `CCCc1nc2sc3c(=O)[nH]cnc3c2c2c1CCCC2` the binding response (% of control) was inconclusive: -99.2%.
For `Cc1ccc(N=c2c([N+](=O)[O-])nn(-c3ccc(Cl)cc3)n2O)cc1C`, the binding response (% of control) was inconclusive: 114%.
For `Cc1c(NC(=O)c2ccc(-c3ccc([N+](=O)[O-])cc3Cl)o2)c(=O)n(-c2ccccc2)n1C`, the binding response (% of control) was inactive: 104%.
For `O=C(NCc1ccccc1)C1(c2cccc(F)c2)CCCC1`, the binding response (% of control) was inconclusive: 110%.
For `Cc1ccnc2nc(C(=O)NC3CCCc4ccccc43)nn12` (stereo not given), the binding response (% of control) was inconclusive: 110%.
With `CCOc1ccc(NC(=S)NC(=O)c2c(Cl)cnn2CC)c([N+](=O)[O-])c1` the binding response (% of control) was inactive: 102%.
In the case of `Cc1cc(C(=O)Nc2ccc(Cl)cc2)c(C)n1Cc1cccs1`, the binding response (% of control) is reported as inconclusive: 117%.
For `COC(=O)/C(C#N)=C/c1ccc(N2CCOCC2)c([N+](=O)[O-])c1`, the binding response (% of control) was inconclusive: 78.3%.
In the case of `N#C/C(=C\N1CCOCC1)C(N)=O`, the binding response (% of control) is reported as inconclusive: 86.3%.
In the case of `Cc1ccc(-c2nnn(CC(=O)N(Cc3ccccc3F)C(C(=O)NC3CCCC3)c3ccncc3)n2)o1` (stereo not given), the binding response (% of control) is reported as inactive: 110%.
For `CCOC(=O)/C(C#N)=C/C=C1/C=CC=CN1C`, the binding response (% of control) was inconclusive: 110%.
For `N#CCCSCc1ccc(OCC(=O)O)cc1`, the binding response (% of control) was inactive: 99%.
`O=C(O)c1ccccc1C(=O)NC1Cc2ccccc2C1` was tested, and the binding response (% of control) was inconclusive: 110%.
